The record followed here is PMC6337163, “Identification of Fatty Acid Desaturase 6 in Golden Pompano Trachinotus Ovatus (Linnaeus 1758) and Its Regulation by the PPARαb Transcription Factor” (International Journal of Molecular Sciences, 2018).

The exact form of at least one protein or probe is not confirmed. Results from cells or extracts need not show a direct contact. A negative result means that nothing was seen under these conditions. Where a protein sequence is shown, tags need not be part of it.

The target of the data set is T1, PPARαb (ToPPARαb) (Trachinotus ovatus) (UniProt A0A3G2KY74).
T1 sequence (looked up, limits assumed): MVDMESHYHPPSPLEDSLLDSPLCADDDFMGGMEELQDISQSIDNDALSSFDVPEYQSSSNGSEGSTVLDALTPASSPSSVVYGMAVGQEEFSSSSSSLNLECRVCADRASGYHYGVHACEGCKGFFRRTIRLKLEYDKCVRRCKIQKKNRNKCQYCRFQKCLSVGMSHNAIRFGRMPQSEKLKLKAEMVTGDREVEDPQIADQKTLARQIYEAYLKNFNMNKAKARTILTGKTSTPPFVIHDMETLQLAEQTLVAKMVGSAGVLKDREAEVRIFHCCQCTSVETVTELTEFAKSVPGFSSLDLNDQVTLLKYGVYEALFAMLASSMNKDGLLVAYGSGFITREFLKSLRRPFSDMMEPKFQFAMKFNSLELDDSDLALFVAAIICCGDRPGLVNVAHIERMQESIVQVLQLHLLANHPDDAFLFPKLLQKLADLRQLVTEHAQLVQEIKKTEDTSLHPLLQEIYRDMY
Put plainly: EMSA. The following applies: EMSA/Gel-Shift Kit (Beyotime) buffer, 25 °C, nondenaturing 4% PAGE, salt and pH not stated, protein in a lysate after overexpression, protein details: Flag (pcDNA3.1-Flag), label: biotin. For orientation: Mobility shift assays separate free from complexed probe on a gel.

Consider “ACCTGGGTCAACTGGCTGAACACGTAG (double strand) [Fads6-MT (mutated M2)]”, for which the binding result is “no binding”. On to “ATGCTAACTTTGACCTGTGGACTGTGC (double strand) [Fads6-WT (M2 site)]”, for which the binding result (blocked by 100x unlabeled WT probe) is “binds”.
